Reference: patent US20190117770A1, “USES OF IMMUNOCONJUGATES TARGETING CD138” (Biotest AG, priority 2011, published 2019)
At least one structure is not confirmed: it was looked up by name or label, or the drawing left a doubt.

Legend:
[1] = test system: MOLP8; assay: Synergy determination in cell lines (Chou and Talalay); format: cell-based; conditions: drug in combination with BT062
Description: Combination studies in xenograph mouse models were preceded by studies in cell lines. […] Here, IC50 values for the cytotoxic effects for each drug and each cell line are calculated, and then IC50 ratios for each drug pair. The cells were then exposed to dilution series of either these drug mixtures, or the drugs alone. Experimental data were analyzed using the CompuSyn software (ComboSyn, Inc., Paramus, N.J.). Combination Indexes (CI) for each independent experiment were calculated and reported separately. In the analysis, CI less than 1, equal to 1 and more than 1 indicates synergy, additivity and antagonism, respectively. According to the classification of T. C.

[2] = test system: U266; assay: as above; format: cell-based; conditions: drug in combination with BT062

C[C@@H]1C[C@H]2[C@@H]3CCC4=CC(=O)C=C[C@]4(C)[C@@]3(F)[C@@H](O)C[C@]2(C)[C@@]1(O)C(=O)CO [Dexamethasone]
Estimate of synergistic result [1]: additive
Estimate of synergistic result [2]: additive
